The results in this text go back to publication PMC9510782.

Chains of the proteins cited; added tags and fusions are not shown.
UniProt P22366: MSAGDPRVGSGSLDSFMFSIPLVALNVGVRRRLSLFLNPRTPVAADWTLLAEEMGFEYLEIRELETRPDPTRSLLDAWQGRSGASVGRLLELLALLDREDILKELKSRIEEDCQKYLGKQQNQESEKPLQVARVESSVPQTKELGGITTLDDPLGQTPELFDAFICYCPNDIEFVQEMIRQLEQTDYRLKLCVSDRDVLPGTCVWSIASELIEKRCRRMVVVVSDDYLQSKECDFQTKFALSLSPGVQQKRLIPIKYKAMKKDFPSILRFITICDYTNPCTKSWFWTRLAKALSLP

The experiment concerns the target HA-tagged MyD88 (UniProt P22366). In words: co-IP; HEK293T cells co-transfected with HA-MyD88 and FLAG-Dok3 or its truncation variants (and His-SHP-2); lysates IP with anti-HA; blotted with anti-HA, anti-FLAG, anti-His.

Results are given in words; binding and its absence hold for the method and conditions named. Binding seen in cells or lysates may run through a third protein. Some binding calls cover weakened binding; strength is not graded here. Sequences can lack the tags named with a protein.

B1: FLAG-tagged Dok3 (full-length) (protein, UniProt Q9QZK7 1-444)
chain: MESVEPPVKDGILYQQHVKFGKKCWRKVWALLYAGGPSGVARLESWDVRDGGLGPAGDRSTGPSRRGERRVIRLADCVSVLPADGESCPRDTGAFLITTTERSHLLAAQHRQSWVDPICQLAFPGTGECSSGSGQAESPKRGFVPMEENSIYSSWQEVTEFPVIVQRTEATSRCQLKGPYLLVLGQDDIQLRETSKPQACFSWPYRFLRKYGSDKGVFSFEAGRRCDSGEGLFAFSSPRAPDICGVVAAAIARQRERLPELAMSPPCPLPRALSLPSLEPPGELREVAPGFELPTPRKLPLTDPGPQSLPLLLSPTQEGPASGLYASVCKQTSKHTGTAEHLYENVCMLEASPGLTNGGPEAQEGPPGGRSPLGSPIYHNTEDLSWPGSAQDSNLEAQYRRLLELELDEAGSAGRSGAQAGIKAKLVTLLTRERKKGPAPCDRP
Consider B1, for which the binding result was “binds”.

B2: FLAG-tagged Dok3 truncation variant bearing the PH domain (domain or fragment, UniProt Q9QZK7 7-123)
chain: PVKDGILYQQHVKFGKKCWRKVWALLYAGGPSGVARLESWDVRDGGLGPAGDRSTGPSRRGERRVIRLADCVSVLPADGESCPRDTGAFLITTTERSHLLAAQHRQSWVDPICQLAF
Consider B2, for which the binding result is listed as “binds”.
